These are yes or no findings as the source states them, for the method shown. Some entries that bind do so weakly or less than the wild type.
Tests used:
[1] = target: T1, human CUB domain-containing protein 1 (CDCP1), expressed by cells (human) (UniProt Q9H5V8); experiment: flow cytometry on TKCC05 cells
T1 sequence: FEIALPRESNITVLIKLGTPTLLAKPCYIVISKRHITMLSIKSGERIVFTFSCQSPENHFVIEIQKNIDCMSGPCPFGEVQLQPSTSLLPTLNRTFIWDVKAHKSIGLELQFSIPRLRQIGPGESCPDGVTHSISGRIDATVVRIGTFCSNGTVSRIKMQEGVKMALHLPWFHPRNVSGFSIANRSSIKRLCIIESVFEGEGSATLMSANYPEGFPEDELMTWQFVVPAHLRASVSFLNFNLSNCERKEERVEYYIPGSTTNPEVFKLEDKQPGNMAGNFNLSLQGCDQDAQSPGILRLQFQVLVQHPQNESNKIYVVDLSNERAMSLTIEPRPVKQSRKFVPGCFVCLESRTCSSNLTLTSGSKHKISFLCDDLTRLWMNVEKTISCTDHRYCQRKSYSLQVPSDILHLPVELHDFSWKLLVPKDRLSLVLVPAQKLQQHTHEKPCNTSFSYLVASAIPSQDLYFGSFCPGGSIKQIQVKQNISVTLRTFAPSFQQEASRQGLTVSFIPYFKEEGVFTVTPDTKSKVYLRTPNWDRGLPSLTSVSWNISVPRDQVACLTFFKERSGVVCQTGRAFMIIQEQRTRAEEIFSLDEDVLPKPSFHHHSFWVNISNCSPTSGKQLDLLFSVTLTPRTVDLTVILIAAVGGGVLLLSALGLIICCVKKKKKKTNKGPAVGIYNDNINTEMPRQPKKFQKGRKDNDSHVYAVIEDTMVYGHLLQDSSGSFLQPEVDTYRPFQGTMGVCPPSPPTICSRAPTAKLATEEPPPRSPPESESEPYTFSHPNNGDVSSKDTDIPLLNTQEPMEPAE

[2] = target: T1, human CUB domain-containing protein 1 (CDCP1), expressed by cells (human); experiment: flow cytometry of TKCC05 cells [right panel]
[3] = target: T1, human CUB domain-containing protein 1 (CDCP1), expressed by cells (human); experiment: flow cytometry, Atto-550 labelled antibody 10 ng/ml, 1 h at 4 C
[4] = target: T1, human CUB domain-containing protein 1 (CDCP1), expressed by cells (human); experiment: flow cytometry, Atto-550 labelled antibody 10 ng/ml, 1 h at 4 °C, 100,000 cells [B]

binding [1]: binds
binding [2]: binds
binding [3]: binds
binding [4]: binds
B1: human/mouse chimeric 10D7 antibody (antibody, human IgG1, kappa, V domains shown)
VH: EVQLQQFGAELVKPGASVKISCKASGYSFSDFNIEWLKQSHGKSLEWIGDINPNYDSTNYNQKFKGRATLTVDKSSSTAYMEVRSLTSEDTAVYYCARLGYGYAMDYWGQGTSVTVSS
VL: IVMTQSPQSMSMSVGERVTLSCKASENVGAYVSWFQQKPDQSPKLLILAASNRYTGVPARFIGSGSATDFTLTISSVQAEDLADYHCGQSYTYPYTFGGGTKLEIKR

Reference: US20220389113A1, “BINDING PROTEINS TO CUB DOMAIN-CONTAINING PROTEIN (CDCP1)” (COMMONWEALTH SCIENTIFIC AND INDUSTRIAL RESEARCH ORGANISATION, priority 2019, published 2022)
